Source: the supplement of paper PMC10338343
± gives the standard deviation. The entries are a selection whose mix differs from that of the whole data set. The uncertainty is large for many entries.

What was measured:
[1] = test system: MILI (PIWIL2) piRISC loaded with piRNA #1 (26 nt); assay: pre-steady-state target cleavage rate (min^-1); higher = faster piRNA-guided slicing of the target; details: guide: piRNA #1 5'p-UGAGGUAGUAGGUUGUAUAGUAUCCA; auxiliary factor: 500 nM mouse GTSF1
Method in brief: (§1)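 Cleave-'n-Seq measured uncleaved targets by sequencing after a transcribed, DNA-blocked target RNA library […] was mixed with 1 nM active affinity-purified piRISC holding one synthetic guide, with or without 500 nM GTSF1 partner protein, at 33 °C in HEPES–potassium acetate buffer for 0–8 or 0–960 min. Counts were normalised to depth and to weakly complementary targets, three trials were pooled, and k3 was capped at 0.0001 min^-1. A burst-and-steady-state fit gave the pre-steady-state cleavage rate.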

[2] = test system: MIWI (PIWIL1) piRISC loaded with piRNA #1 (30 nt); assay: as above; details: guide: piRNA #1 5'p-UGAGGUAGUAGGUUGUAUAGUAUCCAGAGG; auxiliary factor: 500 nM mouse GTSF1
Method in brief: as §1

[3] = test system: EfPiwi piRISC loaded with piRNA #1 (26 nt); assay: pre-steady-state target cleavage rate (min^-1); guide: piRNA #1 5'p-UGAGGUAGUAGGUUGUAUAGUAUCCA; MIWI and MILI are mouse PIWI proteins and EfPiwi is from a freshwater sponge; tags in brackets are library labels; higher = faster piRNA-guided slicing of the target; details: auxiliary factor: 500 nM Ephydatia muelleri Gtsf1
Method in brief: as §1

Sequence | pre-steady-state target cleavage rate [1] | pre-steady-state target cleavage rate [2] | pre-steady-state target cleavage rate [3]
GGAGACCUAACUAUACAACCAUACUACCUCA | 0.00338 ± 0.0065 | 0.000788 ± 0.013 | 0.00116 ± 0.0069
GGAGACCUAUGAUAACAUCCUACUACCUGA | 0.00151 ± 0.0046 | 0.000228 ± 0.011 | 0.000973 ± 0.0072
GGAGACCUAUCUAUACAACACUACUACCUCA | 0.000913 ± 0.0084 | 0.000259 ± 0.021 | 0.000675 ± 0.0096
GGAGACCUAUGUAUACAACCAACUAGCUCA | 0.00118 ± 0.0058 | 0.000358 ± 0.0066 | 0.000171 ± 0.024
GGAGACCUAUGAAUACAUCCUAGUACCUCA | 0.0023 ± 0.0027 | 0.00016 ± 0.015 | 0.000247 ± 0.011
GGAGACCUAUGAUAACAACCGACUACCUCA | 0.00255 ± 0.0029 | 0.000183 ± 0.0099 | 0.00133 ± 0.0062
GGAGACCUAUGAAUACAACCUAGUACCACA | 0.00107 ± 0.0075 | 0.000337 ± 0.009 | 0.00134 ± 0.0072
GGAGUGGAUACUAUACAACCUACAACCUGA | 0.000575 ± 0.0053 | 0.00128 ± 0.0047 | 0.00253 ± 0.0013
GGAGACCUAUGAUAACAAGGUACUACCUCA | 0.00105 ± 0.006 | 0.000741 ± 0.0071 | 0.000727 ± 0.0081
GGAGACCUAUGAUAUGUUCCAACUACGUCA | 0.000553 ± 0.011 | 0.000984 ± 0.0062 | 0.00102 ± 0.0043
GGAGACCUAUGAUAUGUUGCUACUUCCUCA | 0.000276 ± 0.011 | 0.000468 ± 0.0061 | 0.00114 ± 0.0055
GGAGACCUAUGAUAUGUUGCUGCUACCUCA | 0.000114 ± 0.022 | 0.000183 ± 0.011 | 0.000171 ± 0.015
GGAGACCUAUGAAUACAACCCACUACCUCA | 0.00357 ± 0.0039 | 0.00115 ± 0.0056 | 0.00112 ± 0.008
GGAGACCUAUGAUUACAACCUACUACGUCA | 0.00195 ± 0.0025 | 0.00169 ± 0.0032 | 0.000551 ± 0.0036
GGAGACCUAUGAUAACAACCUAGCUACCUCA | 0.00341 ± 0.0035 | 0.000442 ± 0.0061 | 0.000902 ± 0.0094
GGAGACCUAACUAUACUUGCUACUACCUCA | 0.0149 ± 0.0044 | 0.000807 ± 0.012 | 0.00139 ± 0.0074
GGAGACCAUACUAUAGAACCUACAACCUCA | 0.000558 ± 0.0043 | 0.00177 ± 0.0021 | 0.00069 ± 0.0056
GGAGACCUAUGAUUACAAUCCUACUACCUCA | 0.000499 ± 0.015 | 0.000514 ± 0.012 | 0.00106 ± 0.007
GGAGACCUAUGAUAUGUUCACUACUACCUCA | 0.000483 ± 0.014 | 0.000662 ± 0.011 | 0.00146 ± 0.0033
GGAGACCUAUGAUAUGAGACCUACUACCUCA | 0.000495 ± 0.0077 | 0.00015 ± 0.012 | 0.00199 ± 0.0045
GGAGACCUAUGAUAUGUUGCUACAAGCUCA | 0.000552 ± 0.014 | 0.00106 ± 0.0074 | 0.000246 ± 0.0095
GGAGACCUAUGAUAUCAACCCACUACCUCA | 0.00124 ± 0.0057 | 0.000366 ± 0.0067 | 0.000684 ± 0.01
GGAGACCUAUGAUUACAACCUUCUACGUCA | 0.00114 ± 0.0049 | 0.00136 ± 0.0035 | 0.00117 ± 0.0057
GGAGACCAUACUAUACAAGCCUACUACCUCA | 0.00281 ± 0.0049 | 0.00117 ± 0.0082 | 0.00453 ± 0.0032
GGAGACCUAUGAUAUGUUGCUACUACGUGA | 0.000457 ± 0.01 | 0.000413 ± 0.0092 | 0.000454 ± 0.0078

Sequence | pre-steady-state target cleavage rate [1] | pre-steady-state target cleavage rate [2] | pre-steady-state target cleavage rate [3]
GGAGACCUAUGAUUCCAACCUACUACCUCA | 0.0018 ± 0.0051 | 0.000261 ± 0.014 | 0.000746 ± 0.0065
GGAGACCUAUGAUUACAACGUAGUACCUCA | 0.000617 ± 0.01 | 0.000732 ± 0.0063 | 0.00201 ± 0.0058
GGAGACCUAUGAAUACAUCGUACUACCUCA | 0.00148 ± 0.0036 | 0.000269 ± 0.012 | 0.000258 ± 0.014
GGAGACCUAUGAUUACAACCUACUACCAGA | 0.00204 ± 0.0035 | 0.00018 ± 0.012 | 0.00104 ± 0.0071
GGAGACCUAUGAUAACAUCGUACUACCUCA | 0.000905 ± 0.0053 | 0.000259 ± 0.0079 | 0.00134 ± 0.008
GGAGACCAUACUAUUCAACCUACUACCUGA | 0.114 ± 0.018 | 0.64 ± 0.075 | 0.00313 ± 0.0026
GGAGACCUAUGAUUACAACCAUCUACCUCA | 0.00248 ± 0.0031 | 0.000212 ± 0.011 | 0.000286 ± 0.0097
GGAGACCUAUGAAUACAAGCUACUAGCUCA | 0.00622 ± 0.0027 | 0.000161 ± 0.013 | 0.000352 ± 0.008
GGAGACCUAUGAUAUGUUGCUACUAGCCUCA | 0.000547 ± 0.016 | 0.000557 ± 0.012 | 0.00107 ± 0.0046
GGAGACCUAUGAUAUGUUGCUACAACGUCA | 0.00109 ± 0.0072 | 0.00141 ± 0.0056 | 0.000677 ± 0.0052
GGAGACCUAUGAUAACAAGCUUCUACCUCA | 0.00228 ± 0.0028 | 0.000257 ± 0.0072 | 0.000272 ± 0.0095
GGAGACCUAUGAUAUGAUGGUACUACCUCA | 0.000521 ± 0.011 | 0.00122 ± 0.0043 | 0.000939 ± 0.0028
GGAGACCUAAGUAUACUACCUACUACCUCA | 0.0377 ± 0.0069 | 0.00246 ± 0.0029 | 0.00191 ± 0.0029
GGAGACCUAUGAUAACUACCUUCUACCUCA | 0.000899 ± 0.0073 | 0.000281 ± 0.01 | 0.000762 ± 0.008
GGAGACCUAUGAUUUCAACCUACUAGCUCA | 0.00216 ± 0.003 | 0.000142 ± 0.018 | 0.000318 ± 0.0086
GGAGUGGAUACUAUACAACCAUGAUGGAGA [g11:g26:cont:t1A] | 0.00117 ± 0.0053 | 0.00047 ± 0.011 | 0.0021 ± 0.0028
GGAGACCUAUGUAUACAUCCAACUACCUCA | 0.00296 ± 0.0031 | 0.000303 ± 0.0089 | 0.000587 ± 0.0071
GGAGACCUAUGAUAACAAGCUACUACGUCA | 0.00208 ± 0.0042 | 0.00107 ± 0.0061 | 0.00139 ± 0.0048
GGAGACCUAUGAUAACAACCUUCAACCUCA | 0.00083 ± 0.0051 | 0.000155 ± 0.015 | 0.00022 ± 0.017
GGAGACCUAUGAUAUGUUGCUACUACCUUCA | 0.000662 ± 0.0086 | 0.00162 ± 0.0035 | 0.0011 ± 0.0047
GGAGACCUAUGAUAUGUUGCAUACUACCUCA | 0.000535 ± 0.0087 | 0.00101 ± 0.0051 | 0.00115 ± 0.0048
GGAGACCUAUGUAUAGAACCUACUUCCUCA | 0.00289 ± 0.0033 | 0.000402 ± 0.0066 | 0.000282 ± 0.013
GGAGACCUAUGAUAACAUACCUACUACCUCA | 0.000724 ± 0.0071 | 0.000153 ± 0.016 | 0.000204 ± 0.012
GGAGACCUAUGAAUACAACCUACUCCCUCA | 0.00391 ± 0.0022 | 0.00154 ± 0.0025 | 0.00207 ± 0.0041
GGAGACCUAUGAUAUCACACCUACUACCUCA | 0.000837 ± 0.0049 | 0.000178 ± 0.011 | 0.000112 ± 0.019

An excerpt of the results above:
Sequence | pre-steady-state target cleavage rate [1] | pre-steady-state target cleavage rate [2] | pre-steady-state target cleavage rate [3]
GGAGACCUAUGAUUACAACGUAGUACCUCA | 0.000617 ± 0.01 | 0.000732 ± 0.0063 | 0.00201 ± 0.0058
GGAGACCUAUGAAUACAUCGUACUACCUCA | 0.00148 ± 0.0036 | 0.000269 ± 0.012 | 0.000258 ± 0.014
GGAGACCUAUGAUUACAACCUACUACCAGA | 0.00204 ± 0.0035 | 0.00018 ± 0.012 | 0.00104 ± 0.0071
